Laboratory results published in PubChem BioAssay AID493014 (National Center for Advancing Translational Sciences (NCATS), 2011).
The campaign covered roughly 340,000 compounds. About 170 (0.05%) were called active. This list was built around the results that the source calls inconclusive (neither active nor inactive); the mix of calls is not that of the screen. Calls follow the shape of the dose curve; as a rule, active = well fitted inhibition curve with a large enough effect in the signal ratio, with a control signal flat (not every such curve was filed as active); inconclusive = small, poorly fitted or top-dose-only effect, or effect the other way, or a change in a side signal; inactive = flat fitted curve, though single readings scatter; the % refers to the signal ratio. Potencies beside an inconclusive call are fits to weak or partial responses and may not hold up. Peptide text beside a SMILES is read from it. * marks the point of attachment. Bz = O=C(c1ccccc1)*

Test: qHTS Assay to Find Inhibitors of Chronic Active B-Cell Receptor Signaling;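 as to activity change, negative = inhibition: plate controls were basal doxycycline-induced cells for no effect and cells given 10 µM MG132 for full effect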
Settings: ABC-DLBCL IkBa-CBG/CBR reporter, luminescence ratio (green luciferase fused to IkBa over red control in TMD8 lymphoma cells), 4 h; activity change, negative = inhibition: at 46.1 µM (top of the series)
Outline: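 Cell line TMD8 (human ABC DLBCL), stably expressing tet-inducible CBG68-IkBa fusion and CBR; IMDM/0.5% FBS; cpd up to 46 uM; dox induction, 4 h, 37C/5% CO2; dual luminescence; green/red ratio; MG132 control.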
Potency is read from the fitted curve at half-maximal effect.

Row | Structure (SMILES) | activity change, negative = inhibition | Potency
1 | CN(C)c1nc(N)nc(CSc2nc3cc(Cl)ccc3o2)n1 | inactive: 13% | –
2 | Cc1cccc(NCc2ccccc2O)c1 | inconclusive: 0.961% | –
3 | O=C(NCc1cccnc1)C(=O)Nc1cc2c3c(c1)CC(=O)N3CCC2 | inconclusive: -12.7% | –
4 | O=C(CC1SC(=O)N(c2ccccc2)C1=O)Nc1ccc(Cl)cc1 (configuration not stated) | – | inconclusive: 17.8 µM [falling, partial curve]
5 | COc1ccc(OC)c2sc(NC(=O)c3ccc(S(=O)(=O)N(C)C)cc3)nc12 | – | inconclusive: 0.206 µM [rising, full curve, poor fit]
6 | COC(=O)c1cc(Cl)cc2c(C)c(C3(O)CCCCC3)[nH]c12 | – | inconclusive: 5.01 µM [rising, partial curve, poor fit]
7 | CCSc1nc(C)nc2sc(C)c(C)c12 | inconclusive: 4.99% | –
8 | NC(=O)NC(=O)C(Nc1ccc(N2CCCCC2)cc1)c1ccccc1 (configuration not stated) | inconclusive: -23.4% | –
9 | Cc1cc(C)c2c(CN3CCC(C)CC3)cc(=O)oc2c1 | inconclusive: 4.59% | –
10 | COc1ccc(OC)c(CNc2nc3ccccc3n2CCN2CCCCC2)c1 | inconclusive: -7.06% | –
11 | CCOc1ccc(N=C2NC(=O)S/C2=C\c2ccc(N(C)C)cc2)cc1 | inconclusive: 4.83% | –
12 | O=C(Nc1ccc2c(c1)CCC2)Nc1ccc(F)cc1F | inconclusive: -17.5% | –
13 | COc1cccc2cc(C(=O)N3CCc4ccccc4C3)c(=O)oc12 | inconclusive: -14.7% | –
14 | COc1cc(NC(=S)N2CCCCC2C)cc(OC)c1OC (configuration not stated) | inconclusive: 5.49% | –
15 | O=C(NCc1ccccn1)c1ccc2ccccc2n1 | inactive: 1.11% | –
16 | CC(CN1CCOCC1)OC(=O)c1ccccc1Cl (configuration not stated) | inactive: 6.26% | –
17 | Brc1ccccc1-c1nnc(CSc2nnnn2-c2ccccc2)o1 | inconclusive: -1.77% | –
18 | CC(=O)Nc1ccc(Nc2cc(C)nc3c(-c4ccc(Cl)cc4)c(C)nn23)cc1 | inconclusive: -21.6% | –
19 | O=C(Cc1ccc(-c2ccccc2)cc1)NCc1ccccc1 | – | inconclusive: 2.31 µM [falling, full curve]
20 | CC1CCCN(C(=O)C(=O)c2cn(CC(=O)N3CCCCCC3)c3ccccc23)C1 (configuration not stated) | inactive: -0.128% | –
21 | Nc1cc(=O)[nH]c(=S)n1-c1cccc(C(F)(F)F)c1 | – | inconclusive: 18.4 µM [falling, partial curve]

Row | Structure (SMILES) | activity change, negative = inhibition | Potency
22 | COc1ccccc1-c1nc(SCC(=O)N2CCOCC2)n[nH]1 | – | inconclusive: 22.4 µM [falling, partial curve]
23 | CCn1c(=O)cc(SCC(=O)N2CCN(Cc3ccc4c(c3)OCO4)CC2)c2ccccc21 | inconclusive: -6.75% | –
24 | Cc1ccc(/C=C2/NC(=O)N(Cc3ccccc3)C2=O)s1 | inconclusive: 8.61% | –
25 | COc1ccc(C)cc1Nc1n[n+](-c2ccccc2)c(-c2ccc(C(=O)O)cc2)s1 | inactive: -10.3% | –
26 | CCOC(=O)c1c(-c2ccc(C)o2)csc1NC(=O)CN1CCN(CC)CC1 | inconclusive: -1.07% | –
27 | Cc1ccc(S(=O)(=O)/C(C#N)=C/c2c(N3CCCCC3)nc3ccccn3c2=O)cc1 | inconclusive: 9.74% | –
28 | CCOC(=O)c1ccc(-c2c(-c3ccccc3OC)sc3cc4c(cc23)OCO4)cc1F | inactive: -2.97% | –
29 | CC(=O)c1sc(NC(=O)C=C(C)C)nc1C | inconclusive: 5.38% | –
30 | Cc1ccc(N(C(C)C(=O)N2CCC(C)CC2)S(C)(=O)=O)cc1C (configuration not stated) | inactive: 2.13% | –
31 | O=C(CCCCn1c(=O)c2ccccc2n(Cc2ccc(F)cc2Cl)c1=O)NCc1ccco1 | – | inconclusive: 1.46 µM [falling, partial curve, poor fit]
32 | CCOc1cc(NCCN2CCOCC2)c([N+](=O)[O-])cc1OCC | inconclusive: 3.7% | –
33 | CCOC1(OCC)C(c2ccc(N)cc2)C(C#N)(C#N)C1(OCC)OCC (configuration not stated) | – | inconclusive: 35.5 µM [falling, single point]
34 | O=C1CCCC(O)=C1C1NCCc2ccccc21 (configuration not stated) | – | inconclusive: 16.4 µM [rising, partial curve, poor fit]
35 | CC1CCN(c2oc(-c3ccccc3F)nc2C#N)CC1 | inconclusive: 0.407% | –
36 | CCOC(=O)c1cc(-c2ccc(/C=N\n3cnnc3)o2)ccc1Cl | inconclusive: 0.255% | –
37 | C/C(=N\Nc1nc2c(s1)CCCC2)c1ccccc1 | inconclusive: -2.35% | –
38 | COc1cccc(CC(=O)NCc2ccc3c(c2)CCN3C(C)=O)c1 | inconclusive: 1.87% | –
39 | CN(C)CCCO[C@@H]1[C@H]2OC(C)(C)O[C@H]2O[C@@H]1[C@H](O)CO | inactive: 0.695% | –
40 | CCOc1cc2c(C#N)c(N3CCCCC3)nc(N)c2c(N)n1 | inconclusive: 17.9% | –
41 | Cc1sc(N)c(C(=O)c2ccccc2Cl)c1C | inactive: -4.1% | –
42 | CCOC(=O)c1sc2nc(C)nc(N3CCN(S(=O)(=O)c4ccccc4)CC3)c2c1C | inactive: 0.27% | –

Exported with tabs: part of the list above.
Row	Structure (SMILES)	activity change, negative = inhibition	Potency
22	COc1ccccc1-c1nc(SCC(=O)N2CCOCC2)n[nH]1	–	inconclusive: 22.4 µM [falling, partial curve]
29	CC(=O)c1sc(NC(=O)C=C(C)C)nc1C	inconclusive: 5.38%	–
31	O=C(CCCCn1c(=O)c2ccccc2n(Cc2ccc(F)cc2Cl)c1=O)NCc1ccco1	–	inconclusive: 1.46 µM [falling, partial curve, poor fit]
41	Cc1sc(N)c(C(=O)c2ccccc2Cl)c1C	inactive: -4.1%	–

Additional structures follow.

Row | Structure (SMILES) | activity change, negative = inhibition | Potency
43 | CC1(OC(=O)C2CCCC2)C(=O)C=C2C=C(c3ccsc3)N(C3CC3)C=C2C1=O (configuration not stated) | inactive: 14.4% | –
44 | CC(=O)Nc1ccc(Nc2ccc([N+](=O)[O-])cn2)cc1 | inactive: 4.09% | –
45 | CCN(CC)CC(=O)NCC1(c2ccccc2)CCOCC1 | inconclusive: -14.1% | –
46 | COc1ccc(C(=O)Nc2nc3ccc(OC)cc3s2)cc1 | – | inconclusive: 0.708 µM [falling, partial curve, poor fit]
47 | CC(C)C[C@H](NC(=O)c1nc[nH]c1C(=O)N1CCN(C(=O)OC(C)(C)C)CC1)C(=O)OC(C)(C)C | – | inconclusive: 10 µM [rising, partial curve, poor fit]
48 | CCOC(=O)c1c(C)[nH]c(N=Nc2cccc(OC)c2)c1C | inactive: -1.51% | –
49 | COc1cccc(CNS(=O)(=O)c2cc(Br)cc3c2N(C(C)=O)C(C)C3)c1 (configuration not stated) | inconclusive: -23.8% | –
50 | O=C(c1cc(-c2cccc(Cl)c2)on1)N1CCOCC1 | – | inconclusive: 35.5 µM [falling, single point]
51 | CCCSc1ccc([C@@H]2[C@@H]3C(=O)N(C)C(=O)[C@@H]3[C@]3(C(=O)OC)CCCN23)cc1OC | inconclusive: 3.76% | –
52 | COc1ccc(Cl)cc1C(=O)NNC(=O)c1cccs1 | – | inconclusive: 3.26 µM [falling, full curve]
53 | O=C(Nc1ccc(Cl)c(Cl)c1)Nc1ccccn1 | inconclusive: 11% | –
54 | COc1cccc(-c2csc(N3CCN(C(=S)Nc4ccccc4C)CC3)n2)c1 | inactive: -29.8% | –
55 | Cc1cc(C)cc(Nc2ncc3c(n2)CC(c2ccco2)CC3=O)c1 (configuration not stated) | inconclusive: 18.4% | –
56 | Cc1ccn2c(Nc3ccc4c(c3)OCO4)c(-c3ccc(O)cc3)nc2c1 | – | inconclusive: 17.8 µM [falling, partial curve]
57 | N#C/C(=C\c1ccc(-c2ccc(C(=O)O)cc2)o1)C(=O)NCC1CCCO1 (configuration not stated) | – | inconclusive: 23.1 µM [rising, single point]
58 | Cn1cnc2cc(NC(=O)c3ccco3)ccc21 | – | inconclusive: 29.1 µM [falling, single point]
59 | COc1cccc(C(=O)Nc2sc3c(c2C#N)CCN(C(C)=O)C3)c1 | – | active: 20 µM
60 | Cc1ccc(Nc2ccc(C(=O)N3CCCC3)cn2)c(C)c1 | – | inconclusive: 32.6 µM [rising, partial curve, poor fit]
61 | COC(=O)C(NC(=O)C(NC(=O)c1ccccc1)C(C)C)C(C)C (stereo not drawn) (Bz-Val-Val-OMe; configuration not given here) | inconclusive: 7.82% | –
62 | O=C(CCC1CCCC1)N1CCN(C(=O)COc2ccccc2)CC1 | inactive: -5.31% | –
63 | Cc1ccc[n+](CC(=O)N2CCCCC2)c1C | inconclusive: -6.64% | –

Row | Structure (SMILES) | activity change, negative = inhibition | Potency
64 | C=CCNC(=O)C1CC(=O)N(c2ccc(OCC(=O)Nc3c(C)cccc3C)cc2)C1 (configuration not stated) | inconclusive: -1.01% | –
65 | O=C(Nc1ccc(N2CCCC2)c(Cl)c1)c1ccco1 | inconclusive: -0.425% | –
66 | Cc1cccc(C)c1NC(=O)CSc1nnnn1C | inconclusive: -8.96% | –
68 | O=C1N=C(N2CCCCC2)S/C1=C\c1cn[nH]c1-c1ccccc1 | – | inconclusive: 3.66 µM [falling, full curve]
69 | O=C(NC(=S)NNC(=O)c1cnccn1)c1ccc(F)cc1 | – | inconclusive: 35.5 µM [falling, single point]
70 | CCN1CCCC1CNCc1ccc(Cl)cc1Cl (configuration not stated) | inconclusive: 3.56% | –
71 | O=C(NC(C(=O)c1ccccc1)N1CCOCC1)c1cccs1 (configuration not stated) | inconclusive: -3.59% | –
72 | O=C(Nc1ccc(Cl)cc1)c1nc[nH]c1C(=O)N1CCN(c2ccccc2)CC1 | inconclusive: -1.18% | –
73 | C=CCNc1nc(-c2c(C)nc3sccn23)cs1 | inconclusive: 5.55% | –
74 | Cc1[nH]nc(-c2ccc(OCc3cnn(-c4ccccc4)c3)c(C)c2O)c1Oc1ccccc1 | inconclusive: 2.81% | –
75 | O=C(NN=C1CCCC1)c1[nH]c2ccc(Br)cc2c1-c1ccccc1 | – | inconclusive: 3.16 µM [falling, full curve, poor fit]
76 | COc1ccc(NC(=O)CN2CCN(CC(=O)Nc3ccccc3Cl)CC2)c(OC)c1 | inconclusive: -0.778% | –
77 | C=CCn1c(SCC(=O)N(CC)C2CCS(=O)(=O)C2)nc2ccccc2c1=O (configuration not stated) | inconclusive: 3.52% | –
78 | NC(=O)c1cc([N+](=O)[O-])ccc1NCc1cccc2ccccc12 | – | inconclusive: 23.1 µM [falling, single point]
79 | COc1ccc([C@H]2CC(=O)C=C(c3cc(C)ccc3OC)C2)cc1 | inactive: 2.07% | –
80 | Cc1ccc(C(=O)Nc2ccc(-c3csc(C)n3)cc2)cc1 | inconclusive: 5.25% | –
81 | Cc1ccc(Cl)cc1N1C(=O)CC(Sc2ncccn2)C1=O (configuration not stated) | inactive: -9.09% | –
82 | CC(C)(C)C(=O)NC1CC2CCCC(C1)N2C(=O)Nc1cccc(Cl)c1 (configuration not stated) | inconclusive: 3.89% | –
